The list shows a part of the results.

This assay concerns the target T1, OsSMF1 (Oryza sativa, UniProt Q6ZLB0 1-436).
T1 sequence: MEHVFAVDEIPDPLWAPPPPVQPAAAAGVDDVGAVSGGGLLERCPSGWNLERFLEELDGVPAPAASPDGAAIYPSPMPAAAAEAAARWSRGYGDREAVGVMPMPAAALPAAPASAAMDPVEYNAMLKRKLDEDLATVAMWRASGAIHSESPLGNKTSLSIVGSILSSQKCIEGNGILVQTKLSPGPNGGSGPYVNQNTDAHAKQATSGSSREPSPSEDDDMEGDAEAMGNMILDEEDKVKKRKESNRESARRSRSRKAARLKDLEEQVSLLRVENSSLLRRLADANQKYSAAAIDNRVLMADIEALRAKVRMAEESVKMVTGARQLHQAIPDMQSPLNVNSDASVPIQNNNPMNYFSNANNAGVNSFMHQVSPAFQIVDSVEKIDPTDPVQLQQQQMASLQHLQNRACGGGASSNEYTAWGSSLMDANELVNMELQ
Briefly: protein-binding microarray (RPBM); PBS, 2% BSA, 51.3 ng/ul salmon testes DNA, 50 uM zinc acetate, 200 nM TF, 25 C, 1 h; high values mean tight binding. The note with it: protein: recombinant; tags: N-terminal polyhistidine and DsRed monomer fusion (pET32a); chain copies: 2; label: CyDye5-dUTP incorporated in the synthesized complementary strand; 3' TTTTT single-stranded linker to array surface; dsDNA, one strand shown. A digest of the protocol:
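The binding signal is fluorescence intensity per feature, in arbitrary units, read on an Axon 4000B scanner. Polyhistidine- and DsRed-tagged transcription factors (N-terminal fusions) from E. coli BL21-CodonPlus were purified on Ni–NTA and applied at 200 nM for 1 h at 25 °C to a double-stranded, BSA-blocked custom Agilent array in buffer with 50 µM zinc acetate.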
On to “TAGAAGTCTTGGTTCACGCACAGTACAGTACTTGTCAAAGCGGAGTCACCTAGTGCAG”, for which the binding signal was 22200 fluorescence intensity (a.u.).

Regarding “CGCTGTCGACCTCCCCACCTCCTCCTTCGCACGTTCTCGCCGGAGTCACCTAGTGCAG”, the binding signal is 15600 fluorescence intensity (a.u.).

Take “GTTCCATTGGTTTGTAATAATGAAGCCTGCCTAGTGCTTTCGGAGTCACCTAGTGCAG”: the binding signal was 32100 fluorescence intensity (a.u.).

“ACGCTTCCGGGGAGGTCACCGTCAGATGCGGTGGATGCGTCGGAGTCACCTAGTGCAG”: the binding signal was 3540 fluorescence intensity (a.u.). On to “GGCAGTATTGTGGGTGGTTTCGTCCGACGTGGAGGATTGACGGAGTCACCTAGTGCAG”, for which the binding signal is 8560 fluorescence intensity (a.u.). The same measure for “AGAGATGACCATGACGCAATCTAATCATGCAGACACCATACGGAGTCACCTAGTGCAG”: 3520 fluorescence intensity (a.u.). The same measure for “TGGTTGGGCCTGTGCAGCATGGGTGTGCTGTTCAGTGTTGCGGAGTCACCTAGTGCAG”: 3410 fluorescence intensity (a.u.); for “TAAAATATCACGTATACTAGTGATGTACTTGGGGTGATGCCGGAGTCACCTAGTGCAG”: 3160 fluorescence intensity (a.u.).

“TCGGCCGTCGGATCGCGCGCGAAACGCTGTGATGTGCTGGCGGAGTCACCTAGTGCAG”: the binding signal was 4480 fluorescence intensity (a.u.).

For the sequence “TCTTCCCGAATACATTTCGTCGAACACCTTGTGTGCGTAACGGAGTCACCTAGTGCAG”, the binding signal was 19800 fluorescence intensity (a.u.).

Regarding “AACCCAAAGCGAAACGTGGACATGTATGCACCATTGGATCCGGAGTCACCTAGTGCAG”, the binding signal is 3700 fluorescence intensity (a.u.). As for “ATCCTCGAGTCATGGCCTTTCTCGACCTCGTGTACTACACCGGAGTCACCTAGTGCAG”, the figure is 4120 fluorescence intensity (a.u.); as for “ATAACAACCAGATAGCTATTTAATAAATTTAAAGTAAAATCGGAGTCACCTAGTGCAG”, 38500 fluorescence intensity (a.u.). As for “ATTATGCATTATGAATATTTACATGACAGTATATTTAGGACGGAGTCACCTAGTGCAG”, the figure is 20500 fluorescence intensity (a.u.); as for “AGATCCTATAAACGCTCCTAAATCGCCACGCGGCAATCATCGGAGTCACCTAGTGCAG”, 4280 fluorescence intensity (a.u.). As for “GAAAACGGCGTCTGCCACGTGTACACCACTCCTCTGTCTACGGAGTCACCTAGTGCAG”, the figure is 23100 fluorescence intensity (a.u.); as for “CGCGTGTTCTCTTCTCCTGGCTCGATTGCGTGTTGTAGATCGGAGTCACCTAGTGCAG”, 4100 fluorescence intensity (a.u.).

With “GGAGCGGCCTAGGGTAGGCACACCGCGCACGTGGCGCCAACGGAGTCACCTAGTGCAG”, the binding signal was 7030 fluorescence intensity (a.u.). As to “AGAATCAATAATATAGTACATGCTTAAACGCAAATTTCTTCGGAGTCACCTAGTGCAG”, the binding signal is 3600 fluorescence intensity (a.u.). As for “TTTAACAAATGATTTTACTCATTCATCGTGTGACACATCCCGGAGTCACCTAGTGCAG”, the figure is 4250 fluorescence intensity (a.u.); as for “CACTCCGGGTCGCAATGATACCTTTGTGTCATCGGTCATGCGGAGTCACCTAGTGCAG”, 3300 fluorescence intensity (a.u.). The same measure for “AAACAGCAGCAATGTCTCTTTTACGTGGACATCTCAATTACGGAGTCACCTAGTGCAG”: 3710 fluorescence intensity (a.u.).

Regarding “AGTACTTAATGTGTCTAAATTCGTACTGCCCAATAATCTGCGGAGTCACCTAGTGCAG”, the binding signal was 35700 fluorescence intensity (a.u.). As for “CTCGCGTCCGCTGCCTATTTCTGCCTCCGCCACGCCCACGCGGAGTCACCTAGTGCAG”, the figure is 3430 fluorescence intensity (a.u.); as for “TTTCTCTTATTACGGGTAAAATACAATCAATTCTTGACTGCGGAGTCACCTAGTGCAG”, 36800 fluorescence intensity (a.u.). The same measure for “GGACTGCGGAACACTCCCTGTTTGTCGCGAGTTAAGTTTTCGGAGTCACCTAGTGCAG”: 15500 fluorescence intensity (a.u.); for “GCGATGGGTGCGGTGAACAAGAGGGAGAGTAGGAGCGGGACGGAGTCACCTAGTGCAG”: 11900 fluorescence intensity (a.u.); for “GTTTAGTCCATCTTTGTCGATTTGCACCGTCACTGTAAGACGGAGTCACCTAGTGCAG”: 4010 fluorescence intensity (a.u.). As for “ATAGCGAAAACACAACTCTCATACTTGCGAACCTCTCCATCGGAGTCACCTAGTGCAG”, the figure is 3150 fluorescence intensity (a.u.); as for “CTGCGGCCATCGTCCTGTTCCTCTTGGCCTCGCGTGCAGTCGGAGTCACCTAGTGCAG”, 3280 fluorescence intensity (a.u.). As to “AGACTTCCACCTCACCCCTACCCCGACCGTGCACCAACCCCGGAGTCACCTAGTGCAG”, the binding signal is 5610 fluorescence intensity (a.u.). In the case of “ATCACGTAACATCCAAACGACATGACTCACTCTGATCCTACGGAGTCACCTAGTGCAG”, the binding signal was 5600 fluorescence intensity (a.u.). Consider “CGACAAATCCACCTTGGCCTGCACTTGATCGAGCCTCTCTCGGAGTCACCTAGTGCAG”, for which the binding signal is 3570 fluorescence intensity (a.u.). With “AAGCTAGCGGTCACCCAGTCAGCTCACCCCGAGACGCACCCGGAGTCACCTAGTGCAG”, the binding signal is 4400 fluorescence intensity (a.u.).

In the case of “CACCGTCGCCGGGACACACGCCGCCGCACCGCCTCCACCACGGAGTCACCTAGTGCAG”, the binding signal was 3330 fluorescence intensity (a.u.). The same measure for “ACGAAATCAGGCATCAGCATTTGTTCTTTGAATCAGTTCTCGGAGTCACCTAGTGCAG”: 3660 fluorescence intensity (a.u.); for “CAACAACACAACTGCGATATGGTCGTGATTTACGTCTGAACGGAGTCACCTAGTGCAG”: 35700 fluorescence intensity (a.u.). “GCGACGCTACCATTTCCGTCCGTTTGTTCAACCAACTCTCCGGAGTCACCTAGTGCAG”: the binding signal is 21100 fluorescence intensity (a.u.). The same measure for “AGACCGTTTTGATGATTCATGTTGTATTTATTGGTACCCTCGGAGTCACCTAGTGCAG”: 4620 fluorescence intensity (a.u.); for “TTACAGTGGGGCACTTGGTACAAGGCTCTCAGTCGATGCGCGGAGTCACCTAGTGCAG”: 17900 fluorescence intensity (a.u.); for “GTCGTGACTCGCTTTCGCCGGCAAGCCCTGTTCATCGGCGCGGAGTCACCTAGTGCAG”: 18300 fluorescence intensity (a.u.). The same measure for “AACAGTAACCTTGCTGCAGATCAAGTCATGGCTGACTTTGCGGAGTCACCTAGTGCAG”: 3220 fluorescence intensity (a.u.).

(Values after paper PMC7819943, “Rice protein-binding microarrays: a tool to detect cis-acting elements near promoter regions in rice”.)
